Assay results taken from the supplement of paper PMC12819154, “High-throughput peptide-centric local stability assay extends protein–ligand identification to membrane proteins, tissues and bacteria” (Nature Structural & Molecular Biology, 2025).
The list shows a part of the results. Most entries show no effect beyond the scatter of the controls.

By UniProt entry, the sequences of proteins in these tests, tags left out. Where a name states a change or a piece, a line headed by the entry shows the natural chain unless it says otherwise.
UniProt Q08501: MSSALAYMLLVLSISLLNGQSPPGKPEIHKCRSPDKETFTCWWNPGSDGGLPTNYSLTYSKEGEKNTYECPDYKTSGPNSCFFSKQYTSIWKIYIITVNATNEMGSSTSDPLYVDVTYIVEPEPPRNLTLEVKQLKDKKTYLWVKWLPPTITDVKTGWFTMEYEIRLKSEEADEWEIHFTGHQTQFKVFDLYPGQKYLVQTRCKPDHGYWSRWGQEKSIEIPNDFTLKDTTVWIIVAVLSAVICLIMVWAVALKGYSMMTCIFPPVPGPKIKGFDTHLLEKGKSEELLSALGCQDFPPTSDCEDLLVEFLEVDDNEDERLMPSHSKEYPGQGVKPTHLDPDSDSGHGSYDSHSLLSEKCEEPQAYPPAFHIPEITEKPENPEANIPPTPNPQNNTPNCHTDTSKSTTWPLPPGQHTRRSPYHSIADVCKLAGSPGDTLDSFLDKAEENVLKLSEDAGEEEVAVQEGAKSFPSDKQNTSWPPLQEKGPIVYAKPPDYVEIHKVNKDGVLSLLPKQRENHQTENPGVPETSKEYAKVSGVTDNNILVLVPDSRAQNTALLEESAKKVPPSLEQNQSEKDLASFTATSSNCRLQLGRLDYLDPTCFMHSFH
UniProt Q02614: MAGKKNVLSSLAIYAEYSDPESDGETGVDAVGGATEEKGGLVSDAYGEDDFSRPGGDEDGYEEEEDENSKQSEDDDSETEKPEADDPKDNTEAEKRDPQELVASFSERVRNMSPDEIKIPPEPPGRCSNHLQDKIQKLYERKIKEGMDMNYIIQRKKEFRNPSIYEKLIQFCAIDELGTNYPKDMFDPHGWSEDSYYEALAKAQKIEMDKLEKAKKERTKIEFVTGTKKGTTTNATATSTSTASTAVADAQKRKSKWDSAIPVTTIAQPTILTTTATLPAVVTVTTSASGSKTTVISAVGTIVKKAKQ
UniProt Q571I9: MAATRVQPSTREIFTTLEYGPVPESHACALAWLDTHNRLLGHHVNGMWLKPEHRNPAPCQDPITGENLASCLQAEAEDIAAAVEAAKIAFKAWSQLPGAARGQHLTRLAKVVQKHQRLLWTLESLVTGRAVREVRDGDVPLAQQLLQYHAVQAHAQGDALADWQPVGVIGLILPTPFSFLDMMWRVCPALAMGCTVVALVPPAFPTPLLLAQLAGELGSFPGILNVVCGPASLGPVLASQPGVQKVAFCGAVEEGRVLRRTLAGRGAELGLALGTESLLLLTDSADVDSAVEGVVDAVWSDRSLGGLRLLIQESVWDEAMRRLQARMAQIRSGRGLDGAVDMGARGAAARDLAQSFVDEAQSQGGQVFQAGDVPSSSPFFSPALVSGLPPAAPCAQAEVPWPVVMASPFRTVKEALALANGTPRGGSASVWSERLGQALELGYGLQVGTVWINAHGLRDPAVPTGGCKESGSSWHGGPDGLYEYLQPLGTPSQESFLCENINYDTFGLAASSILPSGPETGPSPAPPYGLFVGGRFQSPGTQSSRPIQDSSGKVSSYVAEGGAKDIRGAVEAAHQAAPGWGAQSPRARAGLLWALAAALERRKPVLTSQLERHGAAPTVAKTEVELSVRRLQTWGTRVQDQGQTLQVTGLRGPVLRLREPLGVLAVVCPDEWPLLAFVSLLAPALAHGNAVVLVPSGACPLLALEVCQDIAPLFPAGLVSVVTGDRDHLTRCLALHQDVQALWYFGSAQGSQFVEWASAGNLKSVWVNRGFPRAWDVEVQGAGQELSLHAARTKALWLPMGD
UniProt Q3TCN2: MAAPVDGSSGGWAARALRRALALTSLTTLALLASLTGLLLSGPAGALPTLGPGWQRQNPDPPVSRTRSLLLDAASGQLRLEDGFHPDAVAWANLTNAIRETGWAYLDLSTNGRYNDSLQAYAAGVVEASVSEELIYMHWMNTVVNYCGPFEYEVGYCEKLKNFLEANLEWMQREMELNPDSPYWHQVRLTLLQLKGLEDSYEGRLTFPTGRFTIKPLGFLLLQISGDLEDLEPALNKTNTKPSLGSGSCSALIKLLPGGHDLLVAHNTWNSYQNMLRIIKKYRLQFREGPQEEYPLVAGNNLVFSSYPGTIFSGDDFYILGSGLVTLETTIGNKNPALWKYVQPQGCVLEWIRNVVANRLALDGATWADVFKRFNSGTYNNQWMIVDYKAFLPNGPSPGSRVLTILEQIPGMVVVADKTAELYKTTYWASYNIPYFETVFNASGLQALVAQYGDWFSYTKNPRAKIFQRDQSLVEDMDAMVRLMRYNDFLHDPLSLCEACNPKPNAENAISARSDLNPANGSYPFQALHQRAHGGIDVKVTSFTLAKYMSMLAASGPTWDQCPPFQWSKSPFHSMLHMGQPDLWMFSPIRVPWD
UniProt Q5FWK3: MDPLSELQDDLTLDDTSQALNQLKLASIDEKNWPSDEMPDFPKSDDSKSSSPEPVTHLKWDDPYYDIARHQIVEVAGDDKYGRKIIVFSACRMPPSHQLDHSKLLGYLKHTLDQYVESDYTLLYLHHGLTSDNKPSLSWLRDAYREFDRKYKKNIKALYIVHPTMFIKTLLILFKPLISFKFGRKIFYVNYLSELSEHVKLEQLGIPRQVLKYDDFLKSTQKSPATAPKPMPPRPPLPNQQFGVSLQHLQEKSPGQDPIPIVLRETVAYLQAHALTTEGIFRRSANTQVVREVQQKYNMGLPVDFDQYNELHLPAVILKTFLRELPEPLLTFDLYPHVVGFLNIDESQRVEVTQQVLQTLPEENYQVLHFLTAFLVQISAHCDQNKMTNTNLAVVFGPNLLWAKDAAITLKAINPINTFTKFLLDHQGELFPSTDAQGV
UniProt Q08879: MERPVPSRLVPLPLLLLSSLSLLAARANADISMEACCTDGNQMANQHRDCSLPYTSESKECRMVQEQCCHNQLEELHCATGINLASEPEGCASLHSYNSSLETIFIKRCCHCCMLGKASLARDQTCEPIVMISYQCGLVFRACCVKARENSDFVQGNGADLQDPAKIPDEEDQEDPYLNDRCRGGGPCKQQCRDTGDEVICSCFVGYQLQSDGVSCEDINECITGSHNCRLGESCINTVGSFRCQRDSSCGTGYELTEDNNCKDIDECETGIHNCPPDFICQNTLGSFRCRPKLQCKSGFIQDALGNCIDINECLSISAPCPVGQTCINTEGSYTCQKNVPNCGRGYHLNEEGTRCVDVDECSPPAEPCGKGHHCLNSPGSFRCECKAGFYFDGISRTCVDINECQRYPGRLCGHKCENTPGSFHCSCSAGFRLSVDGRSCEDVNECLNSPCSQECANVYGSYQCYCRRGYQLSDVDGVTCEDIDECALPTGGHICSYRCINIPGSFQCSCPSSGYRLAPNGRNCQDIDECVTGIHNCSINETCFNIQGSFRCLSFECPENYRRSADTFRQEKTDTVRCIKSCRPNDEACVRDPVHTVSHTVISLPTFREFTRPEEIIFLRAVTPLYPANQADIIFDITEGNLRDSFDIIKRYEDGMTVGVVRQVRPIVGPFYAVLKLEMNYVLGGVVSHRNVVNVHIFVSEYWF
UniProt Q3SXB8: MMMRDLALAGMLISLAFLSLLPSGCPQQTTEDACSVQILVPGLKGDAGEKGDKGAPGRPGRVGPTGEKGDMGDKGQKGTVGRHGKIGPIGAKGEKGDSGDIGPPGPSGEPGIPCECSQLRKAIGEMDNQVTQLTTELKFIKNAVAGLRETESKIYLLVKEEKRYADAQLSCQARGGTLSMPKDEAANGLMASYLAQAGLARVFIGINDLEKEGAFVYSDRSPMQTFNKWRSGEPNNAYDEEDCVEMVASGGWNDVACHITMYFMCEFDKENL
UniProt Q3U2P1: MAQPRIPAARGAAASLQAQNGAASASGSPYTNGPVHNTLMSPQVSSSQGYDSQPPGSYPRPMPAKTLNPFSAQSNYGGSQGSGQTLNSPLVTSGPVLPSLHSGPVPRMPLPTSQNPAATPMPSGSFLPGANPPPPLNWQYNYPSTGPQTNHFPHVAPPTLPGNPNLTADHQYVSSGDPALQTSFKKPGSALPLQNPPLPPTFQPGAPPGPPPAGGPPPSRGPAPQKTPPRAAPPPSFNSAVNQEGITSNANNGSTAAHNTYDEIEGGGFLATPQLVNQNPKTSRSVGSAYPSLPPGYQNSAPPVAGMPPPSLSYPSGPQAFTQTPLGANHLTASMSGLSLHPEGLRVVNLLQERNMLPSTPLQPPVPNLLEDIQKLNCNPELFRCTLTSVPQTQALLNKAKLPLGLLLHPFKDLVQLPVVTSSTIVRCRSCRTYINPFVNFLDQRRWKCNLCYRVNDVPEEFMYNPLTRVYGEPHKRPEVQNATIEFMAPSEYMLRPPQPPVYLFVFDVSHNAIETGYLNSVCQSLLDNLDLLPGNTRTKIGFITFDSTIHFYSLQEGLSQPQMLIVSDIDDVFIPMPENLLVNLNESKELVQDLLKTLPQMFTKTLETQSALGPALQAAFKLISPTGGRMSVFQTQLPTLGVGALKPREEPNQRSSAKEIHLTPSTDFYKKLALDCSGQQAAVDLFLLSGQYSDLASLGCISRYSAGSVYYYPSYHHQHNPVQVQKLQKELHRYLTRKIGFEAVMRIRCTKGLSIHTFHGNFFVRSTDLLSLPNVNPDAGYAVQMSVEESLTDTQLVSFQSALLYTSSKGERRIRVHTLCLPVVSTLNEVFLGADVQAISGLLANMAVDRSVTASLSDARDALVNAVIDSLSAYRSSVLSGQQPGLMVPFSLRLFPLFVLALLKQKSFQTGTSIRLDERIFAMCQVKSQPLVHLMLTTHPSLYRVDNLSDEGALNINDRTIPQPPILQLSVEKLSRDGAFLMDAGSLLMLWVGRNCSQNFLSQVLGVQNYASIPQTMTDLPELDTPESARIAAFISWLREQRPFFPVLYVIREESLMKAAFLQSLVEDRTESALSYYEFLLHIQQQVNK
UniProt Q3UZ39: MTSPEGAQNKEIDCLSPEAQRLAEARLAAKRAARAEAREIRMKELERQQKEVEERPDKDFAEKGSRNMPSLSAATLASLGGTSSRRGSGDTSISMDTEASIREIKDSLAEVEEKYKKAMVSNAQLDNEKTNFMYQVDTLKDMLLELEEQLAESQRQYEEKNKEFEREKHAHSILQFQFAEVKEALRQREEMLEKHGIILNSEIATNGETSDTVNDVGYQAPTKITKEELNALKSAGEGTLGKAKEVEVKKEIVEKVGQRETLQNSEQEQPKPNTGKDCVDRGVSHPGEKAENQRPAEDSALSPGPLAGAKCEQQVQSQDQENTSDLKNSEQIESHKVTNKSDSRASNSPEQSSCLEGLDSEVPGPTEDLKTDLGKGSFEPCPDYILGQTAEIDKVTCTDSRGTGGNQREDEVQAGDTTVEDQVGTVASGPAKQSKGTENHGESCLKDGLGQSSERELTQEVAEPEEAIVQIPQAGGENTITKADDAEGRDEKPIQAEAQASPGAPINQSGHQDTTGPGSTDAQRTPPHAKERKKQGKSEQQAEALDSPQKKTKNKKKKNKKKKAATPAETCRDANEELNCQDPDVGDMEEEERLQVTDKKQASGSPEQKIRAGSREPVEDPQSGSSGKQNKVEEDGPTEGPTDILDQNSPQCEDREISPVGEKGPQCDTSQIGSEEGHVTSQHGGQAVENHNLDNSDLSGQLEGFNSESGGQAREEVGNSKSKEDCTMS
UniProt Q3UUQ7: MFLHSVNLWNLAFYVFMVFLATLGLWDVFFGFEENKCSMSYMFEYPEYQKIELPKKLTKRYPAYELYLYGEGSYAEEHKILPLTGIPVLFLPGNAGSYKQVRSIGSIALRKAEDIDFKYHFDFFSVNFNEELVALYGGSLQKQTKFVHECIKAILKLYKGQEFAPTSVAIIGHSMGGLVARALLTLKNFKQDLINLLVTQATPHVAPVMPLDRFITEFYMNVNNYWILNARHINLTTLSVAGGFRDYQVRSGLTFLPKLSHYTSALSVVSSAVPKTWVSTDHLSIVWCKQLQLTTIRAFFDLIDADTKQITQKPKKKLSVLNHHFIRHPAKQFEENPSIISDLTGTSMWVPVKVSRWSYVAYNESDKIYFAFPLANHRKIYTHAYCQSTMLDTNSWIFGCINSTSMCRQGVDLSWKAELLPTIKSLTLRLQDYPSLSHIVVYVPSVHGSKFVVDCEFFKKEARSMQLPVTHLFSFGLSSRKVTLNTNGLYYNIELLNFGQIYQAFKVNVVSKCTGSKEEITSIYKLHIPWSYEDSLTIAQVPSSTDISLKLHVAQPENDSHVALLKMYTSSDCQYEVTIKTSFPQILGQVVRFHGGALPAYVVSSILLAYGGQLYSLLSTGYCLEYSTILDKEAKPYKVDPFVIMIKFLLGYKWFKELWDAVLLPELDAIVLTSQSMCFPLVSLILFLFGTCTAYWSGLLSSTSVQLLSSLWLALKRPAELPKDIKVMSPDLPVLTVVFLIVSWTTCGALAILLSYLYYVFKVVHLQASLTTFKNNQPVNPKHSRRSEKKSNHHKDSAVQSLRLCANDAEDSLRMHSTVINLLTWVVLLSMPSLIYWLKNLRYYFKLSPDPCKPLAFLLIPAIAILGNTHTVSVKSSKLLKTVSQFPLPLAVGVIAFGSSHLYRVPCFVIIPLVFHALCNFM

Compound: CN[C@@H]1C[C@H]2O[C@@](C)([C@@H]1OC)n1c3ccccc3c3c4c(c5c6ccccc6n2c5c31)C(=O)NC4 [staurosporine]
Test: log2 fold change of pooled soluble protein (PISA), ligand vs vehicle (log2 ratio); higher = more thermally stabilized
Details: ligand concentration: 20 uM; assay format: PISA pool 52.9/55.5/58.6 C

Target	log2 fold change of pooled soluble protein
UniProt P97798	-0.0477
UniProt P99026	-0.102
UniProt Q11136	0.133
UniProt Q4VAC9	-0.614
UniProt Q3ULJ0	-0.103
UniProt Q01339	0.0105
UniProt Q08501	-0.184
UniProt Q02614	0.37
UniProt Q3UJD6	-0.133
UniProt Q570Y9	-0.175
UniProt Q5ND28	0.223
UniProt Q3UMF0	0.0555
UniProt Q149L6	0.205
UniProt Q3U3R4	-0.013
Q3UGC7;Q66JS6	-0.0512
UniProt Q501J6	0.0939

Random excerpt: 2 entries already listed, in no set order.
Target	log2 fold change of pooled soluble protein
UniProt Q3UJD6	-0.133
UniProt Q4VAC9	-0.614

Remaining list, next part.

Target	log2 fold change of pooled soluble protein
UniProt Q571I9	-0.00357
UniProt Q3TCN2	0.0762
UniProt Q3UIR3	-0.149
UniProt Q5FWK3	0.0218
UniProt Q3T9X0	-0.0343
UniProt Q08879	0.124
UniProt Q3SXB8	0.0546
UniProt Q3U2P1	-0.0185
UniProt Q00262	0.0765
UniProt Q07079	-0.175
UniProt Q3UZ39	0.000771
UniProt P98192	-0.282
UniProt Q3UBX0	0.0621
UniProt Q5HZI1	-0.0382
UniProt Q3UUQ7	0.042
